This passage reports binding results from paper PMC6104973.

Chains of the proteins cited; added tags and fusions are not shown. Lines headed by an entry give the natural chain unless they say otherwise; changes in a name come on top. A line that says so, or that is headed by a name, gives the form on record, which may keep a tag or linker.
ALX180 (P78324, form named): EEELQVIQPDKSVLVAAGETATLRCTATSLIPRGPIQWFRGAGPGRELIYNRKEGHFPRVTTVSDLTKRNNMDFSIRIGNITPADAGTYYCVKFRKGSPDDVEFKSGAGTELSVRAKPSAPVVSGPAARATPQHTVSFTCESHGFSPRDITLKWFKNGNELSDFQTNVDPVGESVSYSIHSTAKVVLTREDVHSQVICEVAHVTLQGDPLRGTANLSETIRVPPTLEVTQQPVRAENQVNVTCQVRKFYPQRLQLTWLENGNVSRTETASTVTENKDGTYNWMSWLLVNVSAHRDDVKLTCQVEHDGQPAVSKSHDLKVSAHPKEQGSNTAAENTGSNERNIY

In this experiment the target is T1, mouse CD47 on cells (mouse (endogenous in mouse tumor cell lines)) (UniProt Q61735).
T1 sequence: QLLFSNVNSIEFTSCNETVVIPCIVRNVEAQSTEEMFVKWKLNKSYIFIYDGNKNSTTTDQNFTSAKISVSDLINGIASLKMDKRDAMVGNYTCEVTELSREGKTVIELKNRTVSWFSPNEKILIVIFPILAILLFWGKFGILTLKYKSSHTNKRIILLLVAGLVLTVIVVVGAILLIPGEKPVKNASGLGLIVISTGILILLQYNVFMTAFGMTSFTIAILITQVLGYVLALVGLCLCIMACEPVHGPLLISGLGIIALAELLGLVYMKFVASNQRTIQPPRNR
Put plainly: flow cytometry on cells; Alexa Fluor 647-labeled protein at 20 nM on human and mouse tumor cell lines, 15 minutes on ice, with human Fc block and human AB serum; only the binder purified. In general terms: Flow cytometry measures light scatter and fluorescence of single cells or particles in a stream.

These are yes or no findings as the source states them, for the method shown.

“ALX180 (from UniProt P78324 31-373) (Fc fusion)”: the binding result is recorded as “no binding (tested: 20 nM)”.
